Consider 58 molecules from PubChem BioAssay AID2685 (National Center for Advancing Translational Sciences (NCATS), 2010).

The assay in a line: qHTS Assay for Lipid Storage Modulators in Drosophila S3 Cells.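 For cell number change: cells counted by Cell Tracker Red CMTPX staining in the red channel.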 As to conditions: BODIPY lipid droplet fluorescence, 18-24 h; for cell number change: measured here: cell count max response, cells fed with added oleic acid. An outline of the steps: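 Drosophila S3 cells loaded with oleic acid (400 uM, as added) and compounds at several concentrations; lipid droplets imaged by 488-nm laser-scanning cytometry, 500–530 nm intensity and object ratio to cell channel. Percent activity normalized to 20 uM Triacsin C.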

Where [1] appears, read: measured here: cell number channel AC50, cells fed with added oleic acid.
The mark [2] stands for this setting: measured here: lipid fluorescence (Fed channel) AC50, cells fed with added oleic acid.

The list shows a part of the results. These are further read-outs of the screen, such as a control signal, another cell line or another target. No call is given for them. Most of these compounds were active or inconclusive in the main read-out, so they are no random draw. The note in brackets gives the kind of curve behind each potency; many fits are weak.

With `C/C(Cl)=C\Cn1c(Nc2ccccc2)nc2c1c(=O)n(C)c(=O)n2C`, the cell number change came to 54.6%. Further, under setting [1], the concentration at half-maximal activity (AC50) is 6.51 µM [rising, full curve].
With `CCCCC/C=C/C1=CC(=O)C[C@H](c2ccc(Cl)cc2)C1`, the cell number change worked out at 0.123%.
`CC(c1nc2ccccc2c(=O)[nH]1)N1CCCN(S(=O)(=O)c2ccc(F)cc2)CC1` (centres undefined): the cell number change turned out to be 7.9%. The AC50 under setting [2] is 0.164 µM [falling, full curve, poor fit].
In the case of `CSc1ccc(/C=N\NC(=O)COc2ccc(Cl)cc2Br)cc1`, the cell number change is -71%. Also, under setting [1], the AC50 is 23.1 µM [falling, partial curve, poor fit]. For the same molecule, under setting [2], the concentration at half-maximal activity (AC50) is 0.92 µM [falling, partial curve].
For the molecule `COc1cccc(CNC(=O)CN2C(=O)COc3ccc(S(=O)(=O)N4CCCCCC4)cc32)c1`, the cell number change was determined as 2.66%. The AC50 under setting [2] is 6.51 µM [rising, single point].
`N#Cc1ccc(C(=O)OCC(=O)N2CCCC2)cc1`: the cell number change was 41%. Also, under setting [1], the half-maximal activity concentration (AC50) is 25.9 µM [rising, single point].
On to `CC(C)C1=NOC(C(=O)N2CCC(N3CCC(C(=O)N4CCOCC4)CC3)CC2)C1` (centres undefined), for which the cell number change was determined as 5.49%. For the same molecule, the AC50 under setting [2] was 7.31 µM [falling, partial curve].
On to `O=C(O)CCc1ccc(-c2cccs2)n1Cc1ccco1`, for which the cell number change is 9.19%. Also, the AC50 under setting [2] was 0.731 µM [falling, full curve, poor fit].
For `N[C@@H](Cc1ccccc1)c1nnc(SCc2ccccc2Cl)o1`, the AC50 under setting [1] is 2.91 µM [rising, partial curve] and the half-maximal activity concentration (AC50) under setting [2] was 2.06 µM [rising, full curve].
As to `COc1ccc(-c2cc(N)n(S(=O)(=O)c3ccc(F)cc3)n2)cc1OC`, the concentration at half-maximal activity (AC50) was 1.64 µM [rising, partial curve] under setting [1] and 2.31 µM [rising, partial curve, poor fit] under setting [2].
`CCCCCCCNC(=O)C1(CC2CC(c3cccc(Br)c3)=NO2)CCN(C(=O)c2ccccc2)CC1` (centres undefined): the cell number change was -42.6%. Moreover, the concentration at half-maximal activity (AC50) under setting [1] is 8.2 µM [falling, partial curve]. Besides, under setting [2], the half-maximal activity concentration (AC50) is 16.4 µM [falling, partial curve, poor fit].
With `CCN1CCN(c2cc(C(C)(C)C)nc3c(-c4ccccc4)c(C)nn23)CC1`, the cell number change was found to be 29.9%. Also, the AC50 under setting [2] is 4.11 µM [rising, single point].
As to `COC(=O)CC1C(=O)NCCN1C(=O)CSc1nnc(Nc2ccc(C)cc2)s1` (centres undefined), the cell number change was 3.33%.
Same read-out and setting: the figure for `CCCCCCSC1=C(C#N)C(c2ccc(C)o2)CC(=O)N1` (centres undefined) is -22.4%.
With `O=P(CCCO)(Cc1ccccc1)Cc1ccccc1`, the cell number change amounted to 1.21%. The AC50 under setting [2] is 2.91 µM [falling, partial curve, poor fit].
Take `O=c1cc(-c2ccccc2)oc2ccccc12`: the cell number change was found to be 29.9%. Also, the AC50 under setting [2] was 29.1 µM [rising, single point].
Turning to `O=C(CN1CCN(S(=O)(=O)c2ccc(Br)cc2)CC1)Nc1ccccc1C(=O)c1ccccc1`, the cell number change was found to be 9.26%.
`CCc1cccc(NC(=O)Cn2c(=O)n(CCC(=O)NCC3CCCO3)c(=O)c3cc(OC)c(OC)cc32)c1` (centres undefined): the cell number change is -11.4%. Under setting [2], the AC50 is 6.51 µM [rising, single point].
For the molecule `NC(=O)c1ccccc1NC(=O)c1ccc2ccccc2c1`, the cell number change was -29.9%. The half-maximal activity concentration (AC50) under setting [2] was 29.1 µM [falling, single point].
For `Cc1ccc(S(=O)(=O)NC2CC2)cc1`, the cell number change was -6.32%. Moreover, the AC50 under setting [2] is 0.651 µM [falling, full curve].
`COc1cccc(OCCOCCOc2ccc(C)cc2[N+](=O)[O-])c1`: the cell number change is -17%. In addition, the AC50 under setting [2] was 14.6 µM [falling, partial curve].
On to `Nc1ccccc1C(=O)N1CCc2ccccc21`, for which the cell number change worked out at 4.5%.
For the molecule `CSc1nc(-c2ccc(Cl)cc2)c(C#N)c(=O)n1C`, the cell number change was -48.7%. Further, under setting [1], the half-maximal activity concentration (AC50) was 29.1 µM [falling, single point]. Under setting [2], the AC50 was 29.1 µM [falling, single point].
On to `CCOc1ccc(CCNS(=O)(=O)c2ccc3c(c2)oc(=O)n3C)cc1OCC`, for which the cell number change amounted to 2.66%. For the same molecule, under setting [2], the AC50 was 29.1 µM [rising, single point].
Turning to `Cn1c(/N=C/c2cc(Cl)ccc2O)nc2ccccc21`, the cell number change was 30.4%. Besides, under setting [1], the concentration at half-maximal activity (AC50) was 32.6 µM [rising, single point]. The AC50 under setting [2] is 0.58 µM [rising, single point].
`Cc1nnnn1-c1cccc(C(=O)O)c1`: the cell number change was -39.6%. In addition, under setting [1], the concentration at half-maximal activity (AC50) was 3.66 µM [falling, full curve].
On to `CCOc1cc2c(cc1OCC)C(c1ccccc1OC)OC(=O)C2` (centres undefined), for which the cell number change worked out at 30.2%. For the same molecule, the AC50 under setting [1] is 6.51 µM [rising, partial curve]. Further, the concentration at half-maximal activity (AC50) under setting [2] was 0.92 µM [falling, partial curve, poor fit].
In the case of `COc1cccc(/C=C2\SC(=O)N(CCC(=O)NNC(=O)c3cccc(Cl)c3)C2=O)c1`, the cell number change was -35.4%. Further, the AC50 under setting [1] was 8.2 µM [falling, partial curve, poor fit]. Besides, the concentration at half-maximal activity (AC50) under setting [2] is 10.3 µM [falling, partial curve, poor fit].
In the case of `C/C=C\C(=O)Nc1cccc(C2=NOC3(C2)C[C@@H](C(N)=O)N(C(=O)c2ccc(OC)cc2)C3)c1` (some centres undefined), the cell number change was -0.0629%. Besides, the half-maximal activity concentration (AC50) under setting [2] is 6.51 µM [falling, single point].
In the case of `CCNC(=S)NCc1ccc(OC)c(OC)c1`, the cell number change is -7.38%. In addition, the AC50 under setting [2] was 6.51 µM [rising, single point].
`CCCN(CC(=O)Nc1ccccc1OC)C(=O)CN1C(=O)NC2(CCCCC2)C1=O`: the cell number change was 15.4%.
With `O=C(CSc1nnc(COc2ccc(Cl)cc2)o1)N1CCOCC1`, the cell number change was -25.8%. In addition, under setting [1], the AC50 is 1.64 µM [falling, single point]. For the same molecule, under setting [2], the concentration at half-maximal activity (AC50) was 0.82 µM [falling, full curve].
On to `Cc1c(C(=O)Nc2ccc(F)cc2)oc2ccc(S(=O)(=O)N3CCC4(CC3)OCCO4)cc12`, for which the cell number change was -4.42%. Moreover, the concentration at half-maximal activity (AC50) under setting [1] is 0.00411 µM [falling, full curve, poor fit]. The AC50 under setting [2] was 0.164 µM [falling, full curve].
Consider `CCCCN(CCCNC(=O)CN1C(=O)COc2ccccc21)c1ccccc1`, for which the cell number change turned out to be 101%. The concentration at half-maximal activity (AC50) under setting [1] was 9.2 µM [rising, partial curve].
In the case of `COc1ccccc1-c1cc2nc(C)cc(C)n2n1`, the cell number change was -38.8%. Besides, under setting [1], the half-maximal activity concentration (AC50) is 29.1 µM [falling, single point]. Also, under setting [2], the half-maximal activity concentration (AC50) is 2.91 µM [rising, single point].
As for `COc1ccc([C@H]2CC(=O)C=C(c3cc4ccccc4c4ccccc34)C2)cc1`, the cell number change is -16.3%. In addition, the AC50 under setting [2] was 25.9 µM [falling, partial curve, poor fit].
In the case of `CC(C)CNc1nc2c(c(=O)n(C)c(=O)n2C)n1Cc1cccc(Br)c1`, the AC50 runs as follows: under setting [1], 2.31 µM [rising, partial curve]; under setting [2], 2.59 µM [rising, partial curve].
In the case of `COc1ccc(NS(=O)(=O)c2cccc(C(=O)NCC(c3ccc(OC)cc3)N3CCCC3)c2)cc1` (centres undefined), the cell number change was -19%.
Consider `CCc1cc(=O)oc2c(C)c(OCC(=O)NCC3CCC(C(=O)O)CC3)ccc12` (centres undefined), for which the cell number change worked out at 25.9%.
Consider `COc1ccc(Nc2nccc3c2nnn3C)cc1`, for which the cell number change came to 1.47%. Under setting [2], the AC50 is 29.1 µM [rising, single point].
With `O=C(CNC(=O)N1CC(=O)Nc2ccccc21)Nc1cccc(F)c1`, the cell number change was -9.16%. The concentration at half-maximal activity (AC50) under setting [2] is 20.6 µM [rising, single point].
As for `COCCNC(=O)CSCc1cc(C)cc(C)c1`, the AC50 under setting [2] is 0.731 µM [falling, single point].
Consider `Cc1cccc(C(=O)OCC(=O)N(CC(C)C)c2c(N)n(Cc3ccccc3)c(=O)[nH]c2=O)c1C`, for which the AC50 by setting is: under setting [1], 3.26 µM [falling, partial curve, poor fit]; under setting [2], 3.66 µM [falling, single point].
As for `Cc1ccc(C(=O)OCC(=O)NC(=O)c2ccccc2)o1`, the cell number change is 17.3%. The AC50 under setting [2] was 32.6 µM [falling, single point].
Consider `CCN(CC)CCCN1C(=O)C(O)=C(C(=O)c2ccco2)C1c1ccc(OC(C)C)cc1` (centres undefined), for which the cell number change was -15.4%.
Consider `NC(=S)Nc1cccc2cccnc12`, for which the cell number change was -15.7%. Also, the AC50 under setting [1] is 0.00517 µM [falling, full curve, poor fit]. Further, the concentration at half-maximal activity (AC50) under setting [2] is 0.116 µM [falling, full curve, poor fit].
For `CCOC(=O)CSc1n[nH]c(-c2cccnc2)n1`, the cell number change was 19.8%.
For `O=C(CSc1ccc(-c2cccc([N+](=O)[O-])c2)nn1)N1CCCCC1`, the cell number change is -28.9%. Moreover, the half-maximal activity concentration (AC50) under setting [1] was 0.00461 µM [falling, full curve, poor fit].
Regarding `CCOC(Cn1c(CCCO)nc2ccccc21)OCC`, the cell number change is 2.5%.
Regarding `FC(F)(F)c1cnc(Sc2nc3nccc(-c4ccc(Cl)cc4)n3n2)c(Cl)c1`, the cell number change came to 12.2%.
For `O=C(CCN1CCOCC1)Nc1cc(C(=O)Nc2ccccc2F)ccc1N1CC2CC(C1)c1cccc(=O)n1C2` (centres undefined), the AC50 under setting [1] is 0.291 µM [falling, partial curve, poor fit] and the half-maximal activity concentration (AC50) under setting [2] is 0.411 µM [falling, single point].
`COCCCn1c(CCC(=O)O)ccc1-c1cccs1`: the cell number change is -8.23%. Further, the AC50 under setting [2] is 0.0651 µM [falling, full curve, poor fit].
As to `CCOc1ccc(C)cc1S(=O)(=O)NC1CCCCC1`, the cell number change was found to be 10.3%. Moreover, under setting [2], the half-maximal activity concentration (AC50) is 4.61 µM [rising, partial curve].
For `Cc1onc(-c2ccccc2)c1C(=O)NCc1cccnc1`, the cell number change was -10.5%. The AC50 under setting [2] was 0.366 µM [falling, partial curve].
For the molecule `CCCCC(=O)Nc1ccc(C(=O)Nc2cccnc2)cc1`, the AC50 under setting [1] is 0.651 µM [falling, single point].
For `Cc1cc(C)c(CN2CCN(C(=O)Cn3ccc(N)nc3=O)CC2)c(C)c1`, the cell number change is -3.13%. Under setting [2], the half-maximal activity concentration (AC50) was 0.231 µM [falling, full curve, poor fit].
Regarding `CC(C)(C)c1ccc(S(=O)(=O)Nc2ccc3c(c2)COC3=O)cc1`, the cell number change is -48.2%. For the same molecule, the AC50 under setting [1] is 11.6 µM [falling, partial curve, poor fit]. For the same molecule, under setting [2], the half-maximal activity concentration (AC50) was 14.6 µM [falling, partial curve, poor fit].
On to `CCN(CC)c1ccc(/C=N/NC(=O)c2c(Cl)cnn2C)c(O)c1`, for which the cell number change stood at 28.8%. The AC50 under setting [1] is 6.51 µM [rising, partial curve, poor fit]. Besides, under setting [2], the AC50 was 6.51 µM [rising, partial curve, poor fit].
